Experimental data as given in EP1396498A1, “A pair of polypeptides with specific and strong interaction” (Max-Planck-Gesellschaft zur Förderung der Wissenschaften …, priority 2002, dated 2004).
Results are given in words; binding and its absence hold for the method and conditions named. Binding seen in cells or lysates may run through a third protein. Some binding calls cover weakened binding; strength is not graded here. Where a sequence is shown, tags or fusion partners need not be part of it.

Biological target: T1, α-COP from yeast extract (yeast) (UniProt P53622)
T1 sequence (looked up): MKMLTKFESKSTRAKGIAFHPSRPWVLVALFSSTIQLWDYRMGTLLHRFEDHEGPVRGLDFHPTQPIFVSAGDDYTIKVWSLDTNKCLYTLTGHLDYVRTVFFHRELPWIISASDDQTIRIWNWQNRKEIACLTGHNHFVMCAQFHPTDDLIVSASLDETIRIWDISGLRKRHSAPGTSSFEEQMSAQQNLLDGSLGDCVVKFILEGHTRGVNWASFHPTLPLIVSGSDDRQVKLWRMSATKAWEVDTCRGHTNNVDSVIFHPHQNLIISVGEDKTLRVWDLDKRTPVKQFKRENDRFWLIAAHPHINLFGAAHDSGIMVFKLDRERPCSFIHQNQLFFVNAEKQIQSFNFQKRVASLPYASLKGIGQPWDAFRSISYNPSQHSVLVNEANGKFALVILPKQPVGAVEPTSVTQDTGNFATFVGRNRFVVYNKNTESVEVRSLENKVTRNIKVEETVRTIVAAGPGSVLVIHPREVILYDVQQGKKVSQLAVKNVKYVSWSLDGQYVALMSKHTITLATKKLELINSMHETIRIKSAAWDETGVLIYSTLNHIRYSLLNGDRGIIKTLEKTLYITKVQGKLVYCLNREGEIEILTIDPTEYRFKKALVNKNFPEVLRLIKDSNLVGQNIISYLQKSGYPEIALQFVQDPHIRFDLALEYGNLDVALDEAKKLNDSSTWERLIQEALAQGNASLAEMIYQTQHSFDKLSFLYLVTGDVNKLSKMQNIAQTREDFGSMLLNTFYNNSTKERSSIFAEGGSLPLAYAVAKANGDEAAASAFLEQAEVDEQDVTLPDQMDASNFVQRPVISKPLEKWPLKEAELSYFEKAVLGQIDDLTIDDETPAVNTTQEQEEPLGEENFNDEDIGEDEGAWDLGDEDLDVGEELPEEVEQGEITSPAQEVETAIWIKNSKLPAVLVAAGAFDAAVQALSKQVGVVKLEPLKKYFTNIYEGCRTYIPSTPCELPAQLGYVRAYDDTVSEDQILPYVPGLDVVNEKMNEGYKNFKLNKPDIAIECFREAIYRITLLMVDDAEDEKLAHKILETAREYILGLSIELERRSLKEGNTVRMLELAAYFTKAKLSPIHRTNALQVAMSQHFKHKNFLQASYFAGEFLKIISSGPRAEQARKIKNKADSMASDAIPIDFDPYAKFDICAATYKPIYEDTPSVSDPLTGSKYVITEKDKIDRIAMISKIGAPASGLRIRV
Assay: GST pull-down from yeast extract; the filing takes the retention to be mediated by δ-COP

binding: binds
B1: GST-Dsl1p (protein, S. cerevisiae (yeast), UniProt P53847 1-754, looked up, not shown: a dimerising Fc or GST)
chain: MESLFPNKGEIIRELLKDPLILKNDSKRSNGSELELDSSDLLQREAILANELNILDNLKTFLNLIKEVKTNLNILELENCYYSLQSLRKKMRNNAAYLKQSFNFQQSISTYVDTLHLELVSTLYKILTNGFWKITENSIQFTPTVEWGKDKVHIEYDTFMDFVAQQYFPKGSLDNQAWFILDMTSADSQEQVRAKLNTIMKEYMNLSRIVSMIKNSIFISGKEISYENEKNILVFSKSSSHGQHCVSTVLTSFEAVCDFMLDGLAFRDRKTLSYELGPLFNTEFTKFVKNNASIILESLDSPLKNLVSVINNKLTRLVAKSEVTNWTHSGKEIQDLLMNKQLYYNLLLDKVLESHISEIRSIFEDPKKSWQNLEVVELTTSNTNTMSEKIGKNDSDVQNEKELHNAVSKDDDWNWEVEDDDADAWGDEIDVNIDDEEEKTNQEKEKEPEEEENAWDEAWAIDENIDDASLENGKEHLKAHDVGSLDKDHIEVTQLPKLFLAISQNFKSSFADSHVDEQYFAYKYNLLQTSYMAMCTANFSHNWCQLYVDMRYLIERDEKLYRIKELTRNLLETKLNMKYRIVCQLIRHQLTEFRENERNPSWDATIEKLLPYILKEIVRPLQKIRGEEGSRYLLSFLNFLYNDCVTKEILKWQIISEVNSENLGELVSLLVNNTDIQLLAKEPSYKKMREKFATMGKFLPLHLKEIMEMFYNGDFYLFATDELIQWIELLFADTPLRRNAIDDIYEIRGTALDD
